{
  "source": "patent US20210355235A1",
  "about": "“Compositions and Methods For Treating Cancer with Anti-Renalase antibodies and Anti-PD1 antibodies” (YALE UNIVERSITY, priority 2017, published 2021)",
  "tested_on": "renal ischemia",
  "assay": "renal ischemia and reperfusion in WT mice",
  "assay_type": "in vivo, mouse",
  "conditions": "30 minutes of renal ischemia and reperfusion",
  "description": "FIG. 3 is a chart showing that ERK or AKT inhibition abrogates protective effect of renalase peptide: WT mice subjected to sham surgery or to 30 minutes of renal ischemia and reperfusion; RP-[…] or vehicle (saline) injected 10 minutes before renal ischemia. ERK inhibitor PD98059 or the PI3K/AKT inhibitor wortmannin abrogated RP-[…]'s protective effect.",
  "note": "For at least one compound, name, drawing or mass did not settle the structure.",
  "data": [
    {"smiles": "COC[C@H]1OC(=O)c2coc3c2[C@@]1(C)C1=C(C3=O)[C@@H]2CCC(=O)[C@@]2(C)C[C@H]1OC(C)=O", "note": "[wortmannin]", "values": [
      {"measurement": "effect on RP-H220's protective effect", "value": "abrogated"}
    ]}
  ]
}
